# In PubChem BioAssay AID624297 (National Center for Advancing Translational Sciences (NCATS), 2012):
# Hit rate of the full screen: of about 340,000 compounds, about 6,200 (1.8%) were called active. Inconclusive means that the source gave no clear call. Such entries were picked first, then a sample of the others. Calls come from the whole dose curve; as a rule, active = well fitted activation curve with a large enough effect; inconclusive = small, poorly fitted or top-dose-only effect; inactive = no such curve, though single readings can be large or run the other way. A potency beside an inconclusive call is a rough fit, not a confirmed value.
# Experiment: A quantitative high throughput screen for small molecules that induce DNA re-replication in SW480 colon adenocarcinoma cells. For re-replication activation: % of control where 0% means no effect. Note: nearly all actives have a fitted effect of over 55% in size.
# Settings: Hoechst DNA content imaging, 48 h; re-replication activation: at 46.1 µM (top of the series) unless noted
# Summary of the method: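 Image-based read-out: total Hoechst fluorescence of nuclei (405 nm excitation, 500-530 nm emission), with hits raising the fraction of high-intensity nuclei. SW480 colon cells incubated 48 hr with compounds at 37 C.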
# Potency is the fitted concentration of half-maximal effect.
SMILES,Potency,re-replication activation
COc1cc([C@H]2c3cc4c(cc3[C@@H](O[C@H]3O[C@H]5CO[C@@H](C)O[C@H]5[C@@H](O)[C@@H]3O)[C@@H]3COC(=O)[C@H]23)OCO4)cc(OC)c1O,active: 1.5 µM,
COc1cc(NC(=O)CN2C(=O)COc3ccc(S(=O)(=O)N4CCCC4)cc32)cc(OC)c1,"inconclusive: 0.146 µM [activator, full curve, poor fit]",
COc1ccc(NC(=S)NC2CCCC2)c(OC)c1,inactive,
COc1cc(C2C3=C(COC3=O)Oc3cc4c(cc32)OCO4)cc(OC)c1OC(C)=O (configuration not stated),active: 0.13 µM,
Cc1ccc(Nc2nc(N)nc(CN3CCN(Cc4ccccc4)CC3)n2)cc1Cl,"inconclusive: 20.6 µM [activator, single point]",
CC(c1ccccc1C(O)(c1ccccc1)c1ccccc1)N(C)C (configuration not stated),"inconclusive: 20.6 µM [activator, partial curve, poor fit]",
CCC(=O)Nc1ccc(NC(=O)CSc2nnnn2-c2ccc3c(c2)OCCO3)cc1,"inconclusive: 2.31 µM [activator, full curve, poor fit]",
COc1ccc(CSCC(=O)N/N=C/c2ccccc2O)cc1,"inconclusive: 6.51 µM [activator, single point]",
N#Cc1ccccc1Sc1ccccc1C(=O)OCC(=O)NC12CC3CC(CC(C3)C1)C2,inactive,
COc1ccc(NC(=S)N2CCN(c3ccccn3)CC2)cc1OC,"inconclusive: 2.59 µM [activator, partial curve, poor fit]",
Cc1cccc(NC(=S)NNC(=O)c2ccc3c(c2)OCO3)c1,"inconclusive: 23.1 µM [activator, partial curve, poor fit]",
O=C1N=C(N2CCOCC2)S/C1=C\c1ccncc1,inactive,
COc1ccccc1NC(=S)N(Cc1ccco1)Cc1cc2ccc(C)c(C)c2[nH]c1=O,"inconclusive: 0.731 µM [activator, full curve, poor fit]",
COc1ccc(-c2cc(C(F)F)n3ncc(C(=O)Nc4ccc(C(=O)N5CCOCC5)cc4)c3n2)cc1,inactive,
Cc1cc2cc(C#N)c(SCC(=O)Nc3nonc3C)nc2cc1C,"inconclusive: 29.1 µM [activator, single point]",
O=S(=O)(NCc1cccnc1)c1ccc(Cl)nc1,"inconclusive: 0.411 µM [activator, full curve, poor fit]",
CC(C)c1ccc(C(=O)CN2C(=O)NC3(CCc4ccccc43)C2=O)cc1 (configuration not stated),"inconclusive: 16.4 µM [activator, single point]",
CCOC(=O)c1c(C)[nH]c(C(=O)CC(=O)OC)c1C,"inconclusive: 3.66 µM [activator, partial curve, poor fit]",
Cc1cc(S(=O)(=O)N2CCCOC2CNC(=O)C(=O)NCCc2ccco2)ccc1F (configuration not stated),"inconclusive: 29.1 µM [activator, partial curve, poor fit]",
COc1cc(N(C)C)ccc1C=c1c2ccccc2n2c1cc(-c1ccccc1)[n+]2C,"inconclusive: 5.8 µM [activator, partial curve]",
O=C(O)c1cn(C2CC2)c2cc(N3CCNCC3)c(F)cc2c1=O,inactive,
COc1cccc(-c2nc(CS(=O)(=O)CC(=O)Nc3ccccc3Br)c(C)o2)c1,inactive,
O=C(CSc1nc2ccccc2c(=O)n1CCCN1CCOCC1)N1CCN(c2ccccc2)CC1,inactive,

SMILES,Potency,re-replication activation
COC(CNC(=O)C(=O)Nc1ccc2c(c1)N(S(=O)(=O)c1cccs1)CCC2)OC,"inconclusive: 25.9 µM [activator, single point]",
Cc1cccc(N(Cc2ccccc2)C(=O)C2CCN(C(=O)c3ccccc3C)CC2)c1,inactive,
Oc1ccccc1N=Nc1ccccc1O,"inconclusive: 0.517 µM [activator, full curve, poor fit]",
CCN1CCN(c2cc3nc(C)n(Cc4ccccc4)c(=O)c3cc2NC(=O)c2ccccc2F)CC1,active: 8.2 µM,
Cc1ccc(NC(=O)[C@@]2(CC(=O)O)CC(/C=C/c3ccccc3)=NO2)c(C)c1,inactive,
C/C(=C/c1ccccc1)C(=O)N1CCC(C)CC1,"inconclusive: 0.58 µM [activator, full curve, poor fit]",
O=C(COC(=O)c1cnccn1)c1ccc([N+](=O)[O-])cc1,"inconclusive: 29.1 µM [activator, single point]",
CC1(C)CC(=O)C2=C(C1)OC(N)=C(C#N)C21C(=O)N2CCCc3cccc1c32 (configuration not stated),inactive,
COc1ccc(NS(=O)(=O)c2ccc(NC(C)=O)cc2)c(OC)c1,"inconclusive: 29.1 µM [activator, single point]",
CN(C)c1ccc(/C=N/NC(=O)c2cccc(N3CCCC3=O)c2)cc1,"inconclusive: 29.1 µM [activator, single point]",
CC[C@]1(C(=O)OC)[C@H]2C(=O)N(C)C(=O)[C@H]2[C@H]2CN=C(SCc3ccc(C(=O)OC)cc3)N21,"inconclusive: 0.731 µM [activator, partial curve, poor fit]",
O=[N+]([O-])c1cccc(N/N=C/c2ccc(N3CCOCC3)cc2)c1,"inconclusive: 23.1 µM [activator, single point]",
COc1cccc(N2CCN(Cc3nc4scc(-c5ccccc5)c4c(=O)[nH]3)CC2)c1,"inconclusive: 29.1 µM [activator, single point]",
CCOC(=O)CCNC(=O)N1CCCC(CNS(=O)(=O)Cc2ccccc2)C1 (configuration not stated),inactive,
CCn1c(SCC(=O)Nc2ccc(OC)c(OC)c2)nnc1-c1cccs1,inactive,
Cc1cc(NC(=O)CSCC(=O)Nc2cccc(S(=O)(=O)N3CCCCCC3)c2)no1,inactive,
c1ccc2nc3c(nc2c1)c1ccccc1n3CCN1CCOCC1,"inconclusive: 20.6 µM [activator, single point]",
CC(C)c1onc(C(=O)NCCc2ccccc2)c1[N+](=O)[O-],"inconclusive: 20.6 µM [activator, single point]",
COc1ccccc1C(CNC(=O)c1cccc(NS(=O)(=O)c2ccc(C)c(F)c2)c1)N(C)C (configuration not stated),inactive,
CCOc1cc(C(=S)N2CCOCC2)ccc1OC(=O)c1ccc(C)cc1,,inconclusive: 9% [activator]
O=C(COC(=O)c1ccccc1NCCO)Nc1cc(C(F)(F)F)ccc1N1CCOCC1,"inconclusive: 20.6 µM [activator, single point]",
CCC(=O)NC(=S)Nc1c(C)cc(Br)cc1C,"inconclusive: 18.4 µM [activator, single point]",
Cc1ccc(CNC(=O)CCC2CCCN(Cc3cccc4ncccc34)C2)o1 (configuration not stated),"inconclusive: 20.6 µM [activator, single point]",

# Looked up one by one from the list above:
SMILES,Potency,re-replication activation
CN(C)c1ccc(/C=N/NC(=O)c2cccc(N3CCCC3=O)c2)cc1,"inconclusive: 29.1 µM [activator, single point]",
CCC(=O)Nc1ccc(NC(=O)CSc2nnnn2-c2ccc3c(c2)OCCO3)cc1,"inconclusive: 2.31 µM [activator, full curve, poor fit]",
Cc1ccc(Nc2nc(N)nc(CN3CCN(Cc4ccccc4)CC3)n2)cc1Cl,"inconclusive: 20.6 µM [activator, single point]",
COC(CNC(=O)C(=O)Nc1ccc2c(c1)N(S(=O)(=O)c1cccs1)CCC2)OC,"inconclusive: 25.9 µM [activator, single point]",

# Later entries:

SMILES,Potency,re-replication activation
Cc1ccccc1C(=O)Nc1nnc(SCC(=O)NCc2ccco2)s1,"inconclusive: 6.51 µM [activator, single point]",
Cc1ccc(NC(=S)N(CCCN2CCC(C)CC2)Cc2ccco2)cc1C,inactive,
O=C(Nc1cccc(Cl)c1)Nc1csc([N+](=O)[O-])c1,"inconclusive: 0.116 µM [activator, full curve, poor fit]",
CCOc1cc(C)cc2oc(=O)cc(-c3ccccc3)c12,"inconclusive: 1.03 µM [activator, full curve, poor fit]",
Cn1c(=O)[nH]c(=O)c2c1nc(N1CCNCC1)n2Cc1ccccc1,"inconclusive: 4.11 µM [activator, partial curve, poor fit]",
O=S(=O)(Cc1ccccc1)N=Nc1c(O)[nH]c2ccc(Br)cc12,"inconclusive: 29.1 µM [activator, single point]",
O=C(Nc1ccc(CN2CCOCC2)cc1)c1ccc(-c2ccc(Br)cc2)o1,"inconclusive: 20.6 µM [activator, single point]",
COC(=O)C1=CN(CC2CCCO2)C=C(C(=O)OC)C1c1ccccc1C(F)(F)F (configuration not stated),"inconclusive: 29.1 µM [activator, single point]",
COc1ccc(C(=O)NC2CC2)cc1OC1CCN(Cc2ccccc2)CC1,"inconclusive: 29.1 µM [activator, single point]",
COc1ccc(S(=O)(=O)NNC(=O)c2cc3c4ccccc4n(C)c3s2)cc1,"inconclusive: 16.4 µM [activator, single point]",
CCn1c(=O)c(C(=O)NNC(=O)c2ccc(Cl)cc2Cl)c(O)c2ccccc21,"inconclusive: 29.1 µM [activator, single point]",
CCOCCn1c(N2CCCC2)nc2c1c(=O)[nH]c(=O)n2C,inactive,
CCS(=O)(=O)Nc1cccc(C2=NN(C(=O)c3ccco3)C(c3ccco3)C2)c1 (configuration not stated),active: 13 µM,
CCn1c(/C=C/c2ccccc2)nc2ccccc21,"inconclusive: 20.6 µM [activator, single point]",
Cc1ccc(N=C2CCCN2Cc2ccccc2)c(C#N)c1,inactive,
COc1ccc(N2CCN(C(=O)COc3ncnc4ccccc34)CC2)cc1,inactive,
CC(C)(C)C(=O)Nc1ccc(S(=O)(=O)Nc2ccccn2)cc1,"inconclusive: 11.6 µM [activator, partial curve, poor fit]",
NC(=O)CSc1nnc(-c2ccccn2)n1Cc1ccco1,inactive,
O=C(N/N=C/c1ccc(Cl)cc1)c1n[nH]c2c1CCCC2,"inconclusive: 2.06 µM [activator, full curve, poor fit]",
Cc1ccc(NS(=O)(=O)c2cccc(C(=O)Nc3cccnc3)c2)c(C)c1,inactive,
Cc1ccc(C(=O)NNC(=O)CSc2nnc(C3CC3)n2C)cc1,"inconclusive: 18.4 µM [activator, partial curve, poor fit]",
